{"source": "paper PMC12183919", "target": "T1, synaptotagmin 13 (SYT13), endogenous in human brain (human (endogenous in brain tissue)) (UniProt Q7L8C5)", "T1 sequence": "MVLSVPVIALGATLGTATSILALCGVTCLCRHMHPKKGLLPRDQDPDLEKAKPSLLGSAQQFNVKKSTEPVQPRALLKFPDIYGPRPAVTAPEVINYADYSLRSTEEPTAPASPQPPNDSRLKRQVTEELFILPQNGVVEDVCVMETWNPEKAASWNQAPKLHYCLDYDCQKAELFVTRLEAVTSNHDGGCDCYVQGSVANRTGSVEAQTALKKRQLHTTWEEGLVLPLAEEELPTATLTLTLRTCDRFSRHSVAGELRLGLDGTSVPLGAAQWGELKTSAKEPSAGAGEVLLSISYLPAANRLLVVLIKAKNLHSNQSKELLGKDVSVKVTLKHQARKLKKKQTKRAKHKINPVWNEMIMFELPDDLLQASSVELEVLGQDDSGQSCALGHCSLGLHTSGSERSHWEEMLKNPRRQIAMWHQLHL", "assay": "co-IP; human temporal lobe homogenates (DLB, MSA, controls); IP with anti-SYT13 antibody (MBS9606007), immunoblot", "note": "These are yes or no findings as the source states them, for the method shown. Binding seen in cells or lysates may run through a third protein. Binding can be weak; no strength is given. Tags and fused reporters may be left off the sequences shown.", "data": [{"substance": "Syntaxin, endogenous in human brain", "values": [{"measurement": "binding", "value": "binds"}]}]}
